Record: PubChem BioAssay AID493246 (Drosophila RNAi Screening Center, 2011)
Aim: 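Genes fly cells need to grow and stay alive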 (primary screen). Cells: Drosophila Kc and S2R+ cells. Reagent: long dsRNA against Drosophila genes. Read-out: 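Raw, unnormalised count of remaining cells in each well; per-plate z-scores of cell number underlie the calls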. Reading the numbers: Kc cell number and S2R+ cell number: higher = more cells remaining. Active means: 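Active when the per-plate z-score of cell number is 3 or more in the direction of fewer cells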.
The screen tested about 21,000 reagents; below is a random part of those that have a named target and a result. Of all reagents, 429 (2%) were called active. 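Values are raw and not normalised between plates; calls rest on per-plate z-scores that were not deposited.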 A plus sign joins genes that one reagent is predicted to hit. No sequences are given here. Not stated in the record: the amount of reagent, the time to read-out.

| target | amplicon | Kc cell number, rep 1 | Kc cell number, rep 2 | S2R+ cell number, rep 1 | S2R+ cell number, rep 2 | Call |
| --- | --- | --- | --- | --- | --- | --- |
| CG5550 | DRSC06943 | 1.55e6 | 1.55e6 | 1.11e6 | 1.22e6 | inactive |
| PolA2 | DRSC16641 | 1.59e6 | 1.65e6 | 1.09e6 | 1.15e6 | inactive |
| CG42557 + CG42558 | DRSC13963 | 1.19e6 | 1.57e6 | 1.08e6 | 1.16e6 | inactive |
| CG42557 + CG42558 | DRSC16329 | 5.01e5 | – | 8.85e5 | – | inactive |
| CG8777 | DRSC07263 | 1.35e6 | 1.40e6 | 1.10e6 | 1.11e6 | inactive |
| CG9175 | DRSC03153 | 1.52e6 | 1.62e6 | 6.34e5 | 6.80e5 | inactive |
| kek5 | DRSC19438 | 1.47e6 | 1.52e6 | 1.07e6 | 1.12e6 | inactive |
| CG12341 | DRSC06133 | 1.61e6 | 1.68e6 | 1.31e6 | 1.48e6 | inactive |
| CG32260 | DRSC08084 | 1.49e6 | 1.50e6 | 1.03e6 | 1.14e6 | inactive |
| pre-mod(mdg4)-Z + mod(mdg4) + pre-mod(mdg4)-T | DRSC13477 | 1.40e6 | 1.43e6 | 1.03e6 | 1.16e6 | inactive |
| pre-mod(mdg4)-Z + mod(mdg4) + pre-mod(mdg4)-T | DRSC17001 | 1.49e6 | 1.40e6 | 1.06e6 | 1.16e6 | inactive |
| Usf | DRSC18129 | 1.54e6 | 1.53e6 | 1.02e6 | 1.15e6 | inactive |
| NetB | DRSC20262 | 5.41e5 | – | 8.40e5 | – | inactive |
| Fancm | DRSC16348 | 1.45e6 | 1.55e6 | 1.14e6 | 1.21e6 | inactive |
| Cbp80 | DRSC18450 | 7.55e5 | – | 6.94e5 | – | inactive |
| Synj | DRSC04526 | 1.28e6 | 1.41e6 | 1.13e6 | 1.05e6 | inactive |
| loh | DRSC01122 | 1.46e6 | 1.58e6 | 1.06e6 | 1.13e6 | inactive |
| loh | DRSC02943 | 1.75e6 | 1.81e6 | 1.16e6 | 1.32e6 | inactive |
| VGAT | DRSC07160 | 1.75e6 | 1.76e6 | 1.40e6 | 1.59e6 | inactive |
| nonA-l | DRSC17017 | 1.45e6 | 1.47e6 | 1.02e6 | 1.08e6 | inactive |
| yl | DRSC20387 | 1.52e6 | 1.51e6 | 1.03e6 | 1.09e6 | inactive |
| PolE1 | DRSC16112 | 1.80e6 | 1.74e6 | 1.33e6 | 1.36e6 | inactive |
| CG4041 | DRSC18339 | 1.60e6 | 1.59e6 | 1.09e6 | 1.21e6 | inactive |
| wuc | DRSC06152 | 1.58e6 | 1.62e6 | 1.31e6 | 1.45e6 | inactive |
| fax | DRSC11345 | 1.47e6 | 1.51e6 | 1.00e6 | 1.14e6 | inactive |
| Nepl15 | DRSC15630 | 1.63e6 | 1.63e6 | 1.30e6 | 1.31e6 | inactive |
| Archease | DRSC16025 | 1.41e6 | 1.58e6 | 9.96e5 | 1.06e6 | inactive |
| cib | DRSC18660 | 1.37e6 | 1.30e6 | 9.99e5 | 1.11e6 | inactive |
| Ccdc85 | DRSC00501 | 1.24e6 | 1.15e6 | 7.52e5 | 8.67e5 | inactive |
| CG12729 | DRSC17884 | 1.47e6 | 1.49e6 | 1.00e6 | 1.11e6 | inactive |
| CG42238 | DRSC03180 | 1.24e6 | 1.34e6 | 1.09e6 | 1.02e6 | inactive |
| CG14990 | DRSC08449 | 1.51e6 | 1.36e6 | 1.01e6 | 1.17e6 | inactive |
| phtf | DRSC05023 | 1.43e6 | 1.56e6 | 1.16e6 | 1.18e6 | inactive |
| CG3309 | DRSC18301 | 1.61e6 | 1.56e6 | 9.87e5 | 1.17e6 | inactive |
| SLC22A | DRSC11826 | 1.46e6 | 1.71e6 | 1.22e6 | 1.34e6 | inactive |
| SLC22A | DRSC11827 | 1.37e6 | 1.54e6 | 1.29e6 | 1.37e6 | inactive |
| CG6675 | DRSC03735 | 1.68e6 | 1.66e6 | 1.24e6 | 3.11e5 | inactive |
| CG7987 | DRSC16357 | 1.58e6 | 1.68e6 | 1.10e6 | 1.17e6 | inactive |
| TotC | DRSC13449 | 1.36e6 | 1.40e6 | 1.02e6 | 1.07e6 | inactive |
| Fem-1 | DRSC07322 | 1.53e6 | 1.39e6 | 9.00e5 | 1.13e6 | inactive |
| CG13601 | DRSC14604 | 1.51e6 | 1.54e6 | 1.23e6 | 1.31e6 | inactive |
| Smyd4-1 | DRSC06785 | 1.37e6 | 1.60e6 | 1.03e6 | 1.07e6 | inactive |
| Cog1 | DRSC15661 | 1.64e6 | 1.64e6 | 1.20e6 | 1.33e6 | inactive |
| Kua | DRSC02100 | 1.52e6 | 1.61e6 | 1.28e6 | 3.00e5 | inactive |
| CG14383 | DRSC14841 | 1.45e6 | 1.37e6 | 9.84e5 | 1.05e6 | inactive |
| SERCA | DRSC04600 | 1.40e6 | 1.48e6 | 1.06e6 | 1.07e6 | inactive |
| Sod2 | DRSC07554 | 1.42e6 | 1.47e6 | 1.21e6 | 1.22e6 | inactive |
| LanB1 | DRSC03360 | 1.35e6 | 1.39e6 | 5.48e5 | 5.80e5 | inactive |
| CG9628 | DRSC11082 | 1.67e6 | 1.75e6 | 1.21e6 | 1.31e6 | inactive |
| UQCR-C2 | DRSC10405 | 1.29e6 | 1.28e6 | 9.99e5 | 1.14e6 | inactive |
| Vha36-2 | DRSC06294 | 1.37e6 | 1.48e6 | 1.21e6 | 1.29e6 | inactive |
| RNF220 | DRSC15652 | 1.46e6 | 1.60e6 | 1.18e6 | 1.23e6 | inactive |
| CG12219 | DRSC17829 | 1.47e6 | 1.46e6 | 1.01e6 | 1.10e6 | inactive |
| by | DRSC16482 | 1.48e6 | 1.55e6 | 1.30e6 | 1.39e6 | inactive |
| CR42548 | DRSC09514 | 1.44e6 | 1.55e6 | 1.12e6 | 1.30e6 | inactive |
| wntD | DRSC16423 | 1.52e6 | 1.57e6 | 1.03e6 | 1.13e6 | inactive |
| CG31546 | DRSC12317 | 1.43e6 | 1.51e6 | 1.19e6 | 1.29e6 | inactive |
| OtopLb | DRSC00594 | 1.26e6 | 1.24e6 | 8.34e5 | 1.01e6 | inactive |
| CG17742 (retired record) | DRSC10285 | 1.17e6 | 1.20e6 | 6.20e5 | 6.22e5 | active |
| Slmap | DRSC03799 | 1.57e6 | 1.70e6 | 1.20e6 | 2.74e5 | inactive |
| sima | DRSC17055 | 1.43e6 | 1.54e6 | 8.27e5 | 9.05e5 | inactive |
| CG40191 | DRSC21041 | 1.65e6 | 1.66e6 | 1.03e6 | 1.22e6 | inactive |
| CG13157 | DRSC06282 | 1.47e6 | 1.53e6 | 1.30e6 | 1.37e6 | inactive |
| da | DRSC03517 | 1.91e6 | 1.97e6 | 1.25e6 | 1.42e6 | inactive |
| EloB | DRSC16663 | 1.18e6 | 1.26e6 | 9.91e5 | 1.05e6 | inactive |
| CG14540 | DRSC14884 | 1.47e6 | 1.44e6 | 8.61e5 | 9.64e5 | inactive |
| CG14591 | DRSC04868 | 1.71e6 | 1.79e6 | 1.23e6 | 1.37e6 | inactive |
| RhoGAP18B | DRSC19763 | 1.37e6 | 1.43e6 | 9.61e5 | 1.03e6 | inactive |
| RhoGAP18B | DRSC20047 | 1.34e6 | 1.39e6 | 8.01e5 | 9.08e5 | inactive |
| RhoGAP18B | DRSC20048 | 1.36e6 | 1.38e6 | 9.94e5 | 1.06e6 | inactive |
| RhoGAP18B | DRSC20049 | 1.41e6 | 1.44e6 | 9.05e5 | 1.04e6 | inactive |
| RpS13 | DRSC03419 | 7.27e5 | 8.65e5 | 4.89e5 | 5.85e5 | active |
| Prosalpha7 | DRSC07516 | 8.49e5 | 9.77e5 | 6.14e5 | 7.02e5 | inactive |
| AlaRS-m | DRSC09660 | 1.39e6 | 1.41e6 | 1.37e6 | 1.23e6 | inactive |
| asun | DRSC16733 | 1.59e6 | 1.74e6 | 1.16e6 | 1.22e6 | inactive |
